Data published in paper PMC6795708.
These are yes or no findings as the source states them, for the method shown. A result given as binding can be weak or reduced; the word gives no strength. Sequences can lack the tags named with a protein. For some of these results: In cells and extracts the contact can be indirect. One block for each binder: values may come before it.

Columns and labels:
[1] = biological target: AtFBW2 (Arabidopsis TaFBA1 homologous protein), yeast two-hybrid fusion (Arabidopsis); assay: two-hybrid; pGBKT7 and pGADT7 fusions cotransformed into yeast strain Y2H Gold; growth on SD-Leu-Trp, SD-Leu-Trp-His and SD-adenine-His-Leu-Trp at 30°C for 3 to 5 days
[2] = biological target: YFP^C-TaFBA1 (wheat); assay: split reporter; BiFC: YFP N-terminal and YFP C-terminal fusions co-expressed in N. benthamiana leaves by Agrobacterium infiltration; YFP fluorescence by microscopy
[3] = biological target: TaFBA1-LUC^N (wheat); assay: split reporter; LCI assay: LUC N-terminal and LUC C-terminal fusions co-expressed in N. benthamiana leaves by Agrobacterium infiltration; signal read with an imaging system

B1: ABI5 (ABA response protein), yeast two-hybrid fusion (protein, UniProt Q9SJN0 1-442)
chain: MVTRETKLTSEREVESSMAQARHNGGGGGENHPFTSLGRQSSIYSLTLDEFQHALCENGKNFGSMNMDEFLVSIWNAEENNNNQQQAAAAAGSHSVPANHNGFNNNNNNGGEGGVGVFSGGSRGNEDANNKRGIANESSLPRQGSLTLPAPLCRKTVDEVWSEIHRGGGSGNGGDSNGRSSSSNGQNNAQNGGETAARQPTFGEMTLEDFLVKAGVVREHPTNPKPNPNPNQNQNPSSVIPAAAQQQLYGVFQGTGDPSFPGQAMGVGDPSGYAKRTGGGGYQQAPPVQAGVCYGGGVGFGAGGQQMGMVGPLSPVSSDGLGHGQVDNIGGQYGVDMGGLRGRKRVVDGPVEKVVERRQRRMIKNRESAARSRARKQAYTVELEAELNQLKEENAQLKHALAELERKRKQQYFESLKSRAQPKLPKSNGRLRTLMRNPSCPL
- binding [1]: no binding

B2: YFP^N-RCAR1 (protein, UniProt Q84MC7 1-187)
chain: MMDGVEGGTAMYGGLETVQYVRTHHQHLCRENQCTSALVKHIKAPLHLVWSLVRRFDQPQKYKPFVSRCTVIGDPEIGSLREVNVKSGLPATTSTERLELLDDEEHILGIKIIGGDHRLKNYSSILTVHPEIIEGRAGTMVIESFVVDVPQGNTKDETCYFVEALIRCNLKSLADVSERLASQDITQ
- binding [2]: binds

Further lines, results first:

- binding [1]: binds
B3: RCAR1 (an ABA receptor), yeast two-hybrid fusion (protein, UniProt Q84MC7 1-187)
chain: B2 chain

- binding [3]: binds
B4: LUC^C-RCAR1 (protein, UniProt Q84MC7 1-187)
chain: B2 chain
